{
  "source": "patent US20250325573A1",
  "about": "“Anti-Cancer Saccharide-Linked Dithiocarbamate Compounds” (Anglia Ruskin University Higher Education Corporation, priority 2022, published 2025)",
  "data": [
    {"test": "Reaction with CuCl2 to produce the Cu(II) bis(N,N-diethyldithiocarbamate) complex (HPLC)", "details": "1 mM aqueous, CuCl2 1 mM, FIG. 15", "values": [
      {"smiles": "CCN(CC)C(=S)SC1CC(O)C(O)C(CO)O1", "note": "(stereo not drawn) [DG-DDC, 2-Deoxy-glycosyl diethyldithiocarbamate]", "reaction with copper(II) chloride relative to disulfiram": "fast"},
      {"smiles": "CCN(CC)C(=S)SC1OC(CO)C(O)C(O)C1NC(C)=O", "note": "(stereo not drawn) [AG-DDC, 2-N-acetyl-glycosylamine diethyldithiocarbamate]", "reaction with copper(II) chloride relative to disulfiram": "fast"},
      {"smiles": "CCN(CC)C(=S)SC1O[C@H](CO)[C@@H](O)[C@H](O)[C@H]1O", "note": "(stereo partly drawn) [G-DDC, Glycosyl diethyldithiocarbamate]", "reaction with copper(II) chloride relative to disulfiram": "fast"}
    ]}
  ]
}
